Among all 65,000 compounds or so, about 450 (0.69%) were called active.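 The calls were made as follows: active = HER2 level under 5% of the carrier-only control; inconclusive = no clear call, values can overlap the other calls; inactive = the rest.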 Inconclusive means that the source gave no clear call.
What follows are compounds tested against Receptor tyrosine-protein kinase erbB-2 (Homo sapiens) (UniProt P04626) (assay: reducers of endogenous HER2 protein levels – SKBR-3 cells, AlphaScreen, 66K library, primary screen (AID 645;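 also: 100% = DMSO carrier and 0% = 500 nM PU-H71 HSP90 inhibitor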)). Conditions: SKBR-3 HER2 protein level, 18-24 h, at 10 µM, stronger effect = lower value.

SMILES	HER2 level % of control
CCCCn1c(O)c(C(C)=NCCN2CCCCC2)c(=O)[nH]c1=O	inconclusive: 34.2%

Reference: PubChem BioAssay AID645 (SRMLSC, 2007)
